Literature values as cited in patent US20060263327A1, “Method for the production of a stable injectable formulation made of difficult to dissolve antineoplastic active substances” (priority 2003, published 2006).

CC(=O)O[C@H]1C(=O)[C@@]2(C)[C@H]([C@H](OC(=O)c3ccccc3)[C@]3(O)C[C@H](OC(=O)[C@H](O)[C@@H](NC(=O)c4ccccc4)c4ccccc4)C(C)=C1C3(C)C)[C@]1(OC(C)=O)CO[C@@H]1C[C@@H]2O [Paclitaxel]
solubility in water: only poorly soluble
